# Data: the supplement of paper PMC8728848
# Some of the results follow.
# B1: XTP3-B-MRH2 (Homo sapiens), Q96DZ1 (protein)
# chain: EFLSGSYCFRGGVGWWKYEFCYGKHVHQYHEDKDSGKTSVVVGTWNQEEHIEWAKKNTARAYHLQDDGTQTVRMVSHFYGNGDICDITDKPRQVTVKLKCKESDSPHAVTVYMLEPHSCQYILGVESPVICKILDTA
# Key:
# Experiment in all cases: glycan array binding signal (z-score within array); higher = stronger binding
# Settings in all cases: glycan notation: IUPAC condensed, linker removed
# [1] = target: Neu5Ac(a2-3)Gal(b1-4)GlcNAc(b1-3)[Neu5Ac(a2-3)Gal(b1-4)GlcNAc(b1-6)]GalNAc
# Summary of the method: (§1)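 Glycan array data came from 3228 arrays in the Consortium for Functional Glycomics database, and only arrays with an available protein sequence were kept. Glycan names were put into IUPAC-condensed notation, and columns mapping to the same glycan were averaged. The binding signal is a within-array Z-score, averaged across arrays of one protein sequence run at different concentrations or buffers and across linkers. A negative Z-score can be read as non-binding.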
# [2] = target: Neu5Ac(a2-3)Gal(b1-4)GlcNAc(b1-6)GalNAc
# Summary of the method: as §1
# [3] = target: Neu5Ac(a2-3)Gal(b1-4)GlcNAc(b1-6)[Gal(b1-3)]GalNAc
# Summary of the method: as §1
# [4] = target: Neu5Ac(a2-3)Gal(b1-4)GlcNAc(b1-6)[Neu5Ac(a2-3)Gal(b1-3)]GalNAc
# Summary of the method: as §1
# [5] = target: Neu5Ac(a2-3)Gal(b1-4)GlcNAc6S
# Summary of the method: as §1
# [6] = target: Neu5Ac(a2-3)Gal(b1-4)[Fuc(a1-3)]GlcNAc
# Summary of the method: as §1
# [7] = target: Neu5Ac(a2-3)Gal(b1-4)[Fuc(a1-3)]GlcNAc(b1-2)Man
# Summary of the method: as §1
# [8] = target: Neu5Ac(a2-3)Gal(b1-4)[Fuc(a1-3)]GlcNAc(b1-3)Gal
# Summary of the method: as §1
# [9] = target: Neu5Ac(a2-3)Gal(b1-4)[Fuc(a1-3)]GlcNAc(b1-3)Gal(b1-4)GlcNAc
# Summary of the method: as §1
# [10] = target: Neu5Ac(a2-3)Gal(b1-4)[Fuc(a1-3)]GlcNAc(b1-3)Gal(b1-4)[Fuc(a1-3)]GlcNAc(b1-3)Gal(b1-4)[Fuc(a1-3)]GlcNAc
# Summary of the method: as §1
# [11] = target: Neu5Ac(a2-3)Gal(b1-4)[Fuc(a1-3)]GlcNAc(b1-3)GalNAc
# Summary of the method: as §1
# [12] = target: Neu5Ac(a2-3)Gal(b1-4)[Fuc(a1-3)]GlcNAc(b1-6)[Gal(b1-3)]GalNAc
# Summary of the method: as §1
# [13] = target: Neu5Ac(a2-3)Gal(b1-4)[Fuc(a1-3)]GlcNAc(b1-6)[Neu5Ac(a2-3)Gal(b1-3)]GalNAc
# Summary of the method: as §1
# [14] = target: Neu5Ac(a2-3)Gal(b1-4)[Fuc(a1-3)]GlcNAc6S
# Summary of the method: as §1
# [15] = target: Neu5Ac(a2-3)Gal6S(b1-4)GlcNAc
# Summary of the method: as §1
# [16] = target: Neu5Ac(a2-3)Gal6S(b1-4)[Fuc(a1-3)]GlcNAc
# Summary of the method: as §1
# Neu5Ac(a2-3)GalNAc = target: Neu5Ac(a2-3)GalNAc
# Summary of the method: as §1
# [17] = target: Neu5Ac(a2-3)GalNAc(b1-4)GlcNAc
# Summary of the method: as §1
# [18] = target: Neu5Ac(a2-3)[GalNAc(b1-4)]Gal(b1-4)Glc
# Summary of the method: as §1
# [19] = target: Neu5Ac(a2-3)[GalNAc(b1-4)]Gal(b1-4)GlcNAc
# Summary of the method: as §1
# [20] = target: Neu5Ac(a2-3)[GalNAc(b1-4)]Gal(b1-4)GlcNAc(b1-3)GalNAc
# Summary of the method: as §1
# [21] = target: Neu5Ac(a2-3)[Neu5Ac(a2-6)]GalNAc
# Summary of the method: as §1
# Neu5Ac(a2-6)Gal = target: Neu5Ac(a2-6)Gal
# Summary of the method: as §1
# [22] = target: Neu5Ac(a2-6)Gal(b1-3)GlcNAc(b1-3)[Gal(b1-4)GlcNAc(b1-6)]Gal(b1-4)Glc
# Summary of the method: as §1
# Neu5Ac(a2-6)Gal(b1-4)Glc = target: Neu5Ac(a2-6)Gal(b1-4)Glc
# Summary of the method: as §1
# [23] = target: Neu5Ac(a2-6)Gal(b1-4)GlcNAc
# Summary of the method: as §1
# [24] = target: Neu5Ac(a2-6)Gal(b1-4)GlcNAc(b1-2)Man
# Summary of the method: as §1
# [25] = target: Neu5Ac(a2-6)Gal(b1-4)GlcNAc(b1-2)Man(a1-3)Man(b1-4)GlcNAc(b1-4)GlcNAc
# Summary of the method: as §1
# [26] = target: Neu5Ac(a2-6)Gal(b1-4)GlcNAc(b1-2)Man(a1-3)[Gal(b1-4)GlcNAc(b1-2)Man(a1-6)]Man(b1-4)GlcNAc(b1-4)GlcNAc
# Summary of the method: as §1
# [27] = target: Neu5Ac(a2-6)Gal(b1-4)GlcNAc(b1-2)Man(a1-3)[GlcNAc(b1-2)Man(a1-6)]Man(b1-4)GlcNAc(b1-4)GlcNAc
# Summary of the method: as §1
# [28] = target: Neu5Ac(a2-6)Gal(b1-4)GlcNAc(b1-2)Man(a1-3)[GlcNAc(b1-4)][Neu5Ac(a2-6)Gal(b1-4)GlcNAc(b1-2)Man(a1-6)]Man(b1-4)GlcNAc(b1-4)GlcNAc
# Summary of the method: as §1
binder,measurement,setting,value
B1,glycan array binding signal (z-score),[1],-1.1
same,glycan array binding signal (z-score),[2],-0.311
same,glycan array binding signal (z-score),[3],0.038
same,glycan array binding signal (z-score),[4],-0.781
same,glycan array binding signal (z-score),[5],-0.351
same,glycan array binding signal (z-score),[6],-0.945
same,glycan array binding signal (z-score),[7],-0.476
same,glycan array binding signal (z-score),[8],0.532
same,glycan array binding signal (z-score),[9],0.32
same,glycan array binding signal (z-score),[10],0.208
same,glycan array binding signal (z-score),[11],1.32
same,glycan array binding signal (z-score),[12],-0.994
same,glycan array binding signal (z-score),[13],0.723
same,glycan array binding signal (z-score),[14],0.713
same,glycan array binding signal (z-score),[15],0.885
same,glycan array binding signal (z-score),[16],-0.291
same,glycan array binding signal (z-score),Neu5Ac(a2-3)GalNAc,-0.267
same,glycan array binding signal (z-score),[17],-0.479
same,glycan array binding signal (z-score),[18],-1.24
same,glycan array binding signal (z-score),[19],-0.067
same,glycan array binding signal (z-score),[20],1.17
same,glycan array binding signal (z-score),[21],-0.852
same,glycan array binding signal (z-score),Neu5Ac(a2-6)Gal,-0.213
same,glycan array binding signal (z-score),[22],-0.406
same,glycan array binding signal (z-score),Neu5Ac(a2-6)Gal(b1-4)Glc,0.239
same,glycan array binding signal (z-score),[23],-1.02
same,glycan array binding signal (z-score),[24],0.067
same,glycan array binding signal (z-score),[25],-0.836
same,glycan array binding signal (z-score),[26],-0.47
same,glycan array binding signal (z-score),[27],-1.02
same,glycan array binding signal (z-score),[28],-1.13

# Part of the list above, bar-delimited:
binder | measurement | setting | value
B1 | glycan array binding signal (z-score) | [21] | -0.852
same | glycan array binding signal (z-score) | Neu5Ac(a2-6)Gal | -0.213
